From publication PMC10338684

Sequences of proteins named here, by UniProt entry; tags and fusion partners are left off.
UniProt Q9M658: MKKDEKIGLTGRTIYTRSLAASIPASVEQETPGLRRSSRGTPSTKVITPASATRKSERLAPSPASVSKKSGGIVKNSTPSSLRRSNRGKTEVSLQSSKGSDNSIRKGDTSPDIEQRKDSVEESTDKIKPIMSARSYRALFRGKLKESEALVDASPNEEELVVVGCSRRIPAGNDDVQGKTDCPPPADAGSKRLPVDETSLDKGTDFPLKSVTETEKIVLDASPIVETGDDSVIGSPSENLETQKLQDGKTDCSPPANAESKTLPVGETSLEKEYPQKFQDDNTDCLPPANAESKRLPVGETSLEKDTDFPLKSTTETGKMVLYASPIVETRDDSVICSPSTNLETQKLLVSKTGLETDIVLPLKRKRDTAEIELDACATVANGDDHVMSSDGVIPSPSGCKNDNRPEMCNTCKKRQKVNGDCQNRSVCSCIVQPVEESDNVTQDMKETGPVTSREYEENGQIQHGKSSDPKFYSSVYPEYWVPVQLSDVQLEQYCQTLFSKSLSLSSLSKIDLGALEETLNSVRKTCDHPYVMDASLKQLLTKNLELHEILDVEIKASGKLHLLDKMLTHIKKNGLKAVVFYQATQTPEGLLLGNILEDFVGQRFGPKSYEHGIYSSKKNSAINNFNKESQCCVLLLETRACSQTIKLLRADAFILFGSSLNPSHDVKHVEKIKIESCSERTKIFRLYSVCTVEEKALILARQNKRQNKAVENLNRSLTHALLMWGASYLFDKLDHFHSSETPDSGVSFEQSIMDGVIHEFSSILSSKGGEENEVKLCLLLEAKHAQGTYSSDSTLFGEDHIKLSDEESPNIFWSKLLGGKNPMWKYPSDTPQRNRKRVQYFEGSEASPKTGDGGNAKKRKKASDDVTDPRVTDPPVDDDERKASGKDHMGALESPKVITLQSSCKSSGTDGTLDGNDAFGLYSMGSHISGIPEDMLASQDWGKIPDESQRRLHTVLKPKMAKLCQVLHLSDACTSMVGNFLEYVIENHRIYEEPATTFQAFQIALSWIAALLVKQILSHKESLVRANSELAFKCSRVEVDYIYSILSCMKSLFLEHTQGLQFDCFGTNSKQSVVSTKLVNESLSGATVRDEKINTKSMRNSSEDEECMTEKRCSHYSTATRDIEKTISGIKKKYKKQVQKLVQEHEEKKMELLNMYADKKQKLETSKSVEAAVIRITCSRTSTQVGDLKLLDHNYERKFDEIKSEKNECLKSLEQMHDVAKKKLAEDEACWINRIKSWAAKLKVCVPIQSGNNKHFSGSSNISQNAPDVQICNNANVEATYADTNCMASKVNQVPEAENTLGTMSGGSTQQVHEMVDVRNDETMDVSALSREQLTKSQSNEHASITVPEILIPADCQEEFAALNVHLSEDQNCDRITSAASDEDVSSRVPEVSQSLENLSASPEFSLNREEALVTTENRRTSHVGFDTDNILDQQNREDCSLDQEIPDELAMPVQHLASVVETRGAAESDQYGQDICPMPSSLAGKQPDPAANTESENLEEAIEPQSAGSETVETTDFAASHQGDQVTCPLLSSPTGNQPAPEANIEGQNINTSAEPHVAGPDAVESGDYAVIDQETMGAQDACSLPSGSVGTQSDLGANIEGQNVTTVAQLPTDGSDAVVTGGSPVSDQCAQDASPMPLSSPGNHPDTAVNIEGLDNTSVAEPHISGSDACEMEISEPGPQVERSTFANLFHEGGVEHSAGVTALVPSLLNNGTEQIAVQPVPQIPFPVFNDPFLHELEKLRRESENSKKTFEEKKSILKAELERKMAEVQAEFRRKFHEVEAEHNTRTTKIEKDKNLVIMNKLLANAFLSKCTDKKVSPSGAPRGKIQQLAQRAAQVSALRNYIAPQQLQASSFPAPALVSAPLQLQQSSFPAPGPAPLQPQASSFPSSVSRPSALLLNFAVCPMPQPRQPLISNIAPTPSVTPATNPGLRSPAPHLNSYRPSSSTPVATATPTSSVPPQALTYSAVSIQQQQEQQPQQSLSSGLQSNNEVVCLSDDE

B1: PIAL1, endogenous (protein, UniProt A0A0A7EPL0 1-847)
chain: MVIPATSRFGFRAEFNTKEFQASCISLANEIDAAIGRNEVPGNIQELALILNNVCRRKCDDYQTRAVVMALMISVKSACQLGWFPERETQELLAIIDLMWNGFSCPENVTSCVNSPVTLISQVIERFYPCVKLGHILVSFEAKPESKMMMKDFHISKKMPHSPKQKVGLFVVRTEDISRSNCIVHPQGVSFLLNGKGIDKRVNISMESGPQLPTNVTALLNLGANLLQAIGCFGGSYLIAIAFMDVIPLPNKPLLKDYVHPEVVGSNSDCDIIEGPSRISLSCPISRTRIKLPVKGHVCKHLQCFDFWNYVNMNTRRPSWRCPHCNQSVCYTDIRVDQKLRKILEEVGRNAADVVISADGTWMVETENDEDVELVPETTHDHGDPNSFINLGPTVKNPARDENEMETSTQVEEHNPCLSEIQGPSNDTHRPASDYTMLNQSHTSTNTLPQLPRTLNAFDGQQFVNLPQVINTRDSPASQALPMTFSPTPSPQDILATNAANFGTSMPAAQSSQFQGSHVTSLGNCEGRTSDLMARWNHIYGRVQTQFPPAPLSHHHYSMQNQSPSPAQQRPVPSYIAHPQTFHVNYGENADQRWMPSSIAHPQTLPVNYGGNTNQRPIPSSIAHPQTLPVNYRGNTDHRSTPYSITHLQTLLNYGGNADQRPMPSSITNLQTLPATYGGYAHQRPMSSSITHPRTSPVNYGGTPDQRPMPSSITHPQTLPVSYGGTTDQILNPGGAMGQFSSREFMNLTPANTENWRPQSRMRGSVAPGTGYDHMIIHPTRPVHPQAQTPPAPLSTSYDGADEIQAFIGHPSYPVSNNETQAGTSSLPVAEGLGYSGSFWSMPPETW
B2: PHD1, endogenous (protein, UniProt B3H578 1-431)
chain: MSLHVKGPVCQTCGDIGFEEALVFCDSCMFESIHRYCLGITPIPFTEYITWICEDCDNSESDSDCNEVDQTVKKKKKSRNQPLVVLAEDNVLQEPLEGSKREESSCSRKPHELTCLDGNGESVLEAADSSSVPDHSSCTSKRKEVDQTANLGHILERSEKKKKKKKKKKSINHSPPVLAVEDHELQGTTNVVEPVEVSSSSPTKETMESKRQESSDSRKPHELTCLVGDSETANSSSVPEHNSCAVKKRKLSSGNKQIQLADGSSSCRVAESNMPLTLTSRNYRAQPIKIPIWRGLMSVKGGNSCTMDGIVAHVSSLACPKVHETASSLKGRLSAEILPRLEVWPKTFLKNGGPKDESVALFFFPSSESNDEKVFDSLVDKMKKNDSAMRCVLNDAELLLFTSYMLPKDSWTFNSKYYLWGVFKPRQTSRY
B3: PIAL2, endogenous (protein, UniProt F4JYG0 1-760)
chain: MSTAAAARPVAGTGLREKTAASLVNSFRLASVTQRLRYHIQDGAKVDPKEFQICCISFAKGIDFAIANNDIPKKVEEFPWLLKQLCRHGTDVYTKTALMVLMISVKHACHLGWFSDSESQELIALADEIRTCFGSSGSTSPGIKSPGSTFSQIMERFYPFVKLGHVLVSFEVKAGYTMLAHDFYISKNMPHSLQEKIRLFVAQTDNIDTSACISNPPEVSFLLNGKGVEKRVNIAMDTGPQLPTNVTAQLKYGTNLLQVMGNFKGNYIIIIAFTGLVVPPEKPVLKDYLQSGVIEASPDSDIIEGPSRVSLSCPISRKRIKLPVKGQLCKHLQCFDFSNYVHINMRNPTWRCPHCNQPVCYPDIRLDQNMAKILKDVEHNAADVIIDAGGTWKVTKNTGETPEPVREIIHDLEDPMSLLNSGPVVFDLTGDDDAELEVFGDNKVEDRKPCMSDAQGQSNNNNTNKHPSNDDYSSIFDISDVIALDPEILSALGNTAPQPHQASNTGTGQQYSNLSQIPMSIDPMPVPVPFSQTPSPRDRPATTSTVFTIPNPSPQYSQVHASPVTPTGTYLGRTTSPRWNQTYQSQAPPMTTPYTSRKVSVPVTSQSPANVSSFVQSQHVPRVLSQPNNYGVRGLTSSHASTSRQHPSGPTVQSVSRLSDLVDVDLTVPDTSNWRPRMRGSLVPGSHSTALDHMIIRPSQQSQTSTRLNSSQPVQTPSVQTSQAQSPFTTAAYRTETVLGNRNHPVPAPPGIVRPTGPTS
B4: AIPP3, endogenous (protein, UniProt Q8RXT5 1-587)
chain: MVLSRRFAQVSSDEEDDVPITRSKGRNSASPEESLGKRRKRKTVKLYEDFEEKEADRKKKRKGNKEDEDMAEGDDDQAEEETNPEAEEEEDEEEEEKPDDACPVGDSVNVTGKGKGKRTHFNQFAYDGNTYDLEVPVLLVPEDKSQKPYVAIIKDITQTKDGSMMILGQWFYRPEEAEKRGGGNWQSSDTRELFYSFHRDEVPAESVMHRCVVYFVPAHKQLPKRKNNPGFIVRKVYDTVEKKLWKLTDKDYEDSKQREIDVLVKKTMNVLGDLPDLESEDMLVDQENVLKAKRSFRKVNISPVDVRREEDASLKAETPGSGAGISSEHYAILEKFDSLTGDAHRDKCLGKLLEAVQHICYIPENKQAGDEAKVGSDASHLEQDEKDTKPENGKDEKFLWPDAAVPQVCALENASHASLASDFQKYNQKMRTLVFNLKNTALLARRLLNGELEPATILNMSPTELKEGLTADETTKKEPDDADRMQMTSVRCSRCSQLTVGLRDIIQAGHGDRYQLECVDCGYSWYASRDEVSTLTIVTDKPAQGTEKEDIEKNLTSPRETNKPKDEALKTNDSNADNNPEASKKPE

Molecular target: miniMOM1-FLAG (CMM2 domain of MOM1 together with a nuclear localization signal) (Arabidopsis thaliana)
Assay: affinity purification with mass spectrometry; native IP-MS from unopened flower buds of FLAG-tagged transgenic plants, Col-0 as control; IP buffer 50 mM Tris-HCl pH 8.0, 150 mM NaCl, 5 mM EDTA, 10% glycerol, 0.1% Tergitol; anti-FLAG M2 magnetic beads, 4 °C, 2 h; eluted with 3xFLAG peptides

Binder | binding
B1 | binds
B2 | no binding
B3 | binds
B4 | no binding

Molecular target: T1, PHD1-FLAG (Arabidopsis thaliana) (UniProt B3H578)
T1 sequence: B2 chain
Assay: as above

Binder | binding
B1 | binds
B3 | binds
B4 | binds

Molecular target: T2, AIPP3-FLAG (Arabidopsis thaliana) (UniProt Q8RXT5)
T2 sequence: B4 chain
Assay: as above

Binder | binding
B1 | binds
B2 | binds
B3 | binds

Molecular target: T3, PIAL2-FLAG (Arabidopsis thaliana) (UniProt F4JYG0)
T3 sequence: B3 chain
Assay: as above

Binder | binding
B1 | binds
B2 | binds
B4 | binds

Molecular target: MOM2-FLAG (Arabidopsis thaliana)
Assay: as above

Binder | binding
B1 | binds
B2 | binds
B3 | binds
B4 | binds

Molecular target: MOM1-FLAG (MORPHEUS' MOLECULE1 with C-terminal 3xFLAG) (Arabidopsis thaliana) (UniProt Q9M658)
Assay: as above

Binder | binding
B1 | binds
B3 | binds
B4 | binds

Results are given in words; binding and its absence hold for the method and conditions named. Binding seen in cells or lysates may run through a third protein. Here binding means that the protein was enriched with, or labelled near, the bait; the list need not be complete. For some assays here: A no says only that the protein was not detected with the bait. For some assays here: Sequences can lack the tags named with a protein.
